Measurements: the supplement of paper PMC10338343
± gives the standard deviation. Some of the results follow. Many of these values have a large error.

Test system: EfPiwi piRISC loaded with L1MC piRNA (26 nt)
Assay: pre-steady-state target cleavage rate (min^-1); guide: L1MC piRNA 5'p-UAACUAAAUACUAUGCAAGCUGUAGG; MIWI and MILI are mouse PIWI proteins and EfPiwi is from a freshwater sponge; tags in brackets are library labels; higher = faster piRNA-guided slicing of the target
Conditions: auxiliary factor: 500 nM Ephydatia muelleri Gtsf1
Protocol: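 Cleave-'n-Seq: a library of target RNAs (target site in constant flanks) at […] was incubated with 1 nM active freshwater sponge Ephydatia fluviatilis Piwi piRISC (synthetic 5'-monophosphorylated piRNA guide) with or without 500 nM EmGtsf1 at 33 °C for 1 min to 16 h. Uncleaved targets were sequenced and the pooled three trials fitted to a burst-and-steady-state model to give the pre-steady-state cleavage rate (min^-1). Sequence is the target site only. Fits with R² ≤ 0 are excluded.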

| Sequence | pre-steady-state target cleavage rate |
| --- | --- |
| UCCUGCUUACAGCUUGCAUAGUAUUUAGUUA | 0.0638 ± 0.015 |
| UCCUGGUACAGCUAGCAUAGUAUUUUCAAA | 0.00108 ± 0.0048 |
| UCCUGGAUGUCGAACGUUAGUUAAUAGUUA | 0.00015 ± 0.037 |
| UCCUGGAUCAGCUUGCAUAGUAUUAUAGUUA | 0.0796 ± 0.024 |
| UCCUCGUACAGCUUGCAUAGUAUUAAGUUA | 0.00547 ± 0.0018 |
| UCCUGGAUGUCCUUGCAUAGUAUUAUGUUA | 0.000271 ± 0.012 |
| UCCUGGAAGAGCUUGGAUAGUAUUUAGUUA | 0.00392 ± 0.0027 |
| UCCUGGAUCAGCUUGCAUAGUAUUUCAGUUA | 0.00187 ± 0.0024 |
| UCCUGGAUGUGCUUGCAUUCUAUUUAGUAA | 0.000288 ± 0.019 |
| UCCUGGAUGUGCAUGCAUAGUAAUUAGUUA | 0.00135 ± 0.0031 |
| UCCUGGAACAGCUUGCAUAGUAUUUACGUUA | 0.00579 ± 0.0024 |
| UCCUCCUACACGAUGCAUAGUAUUUACAAA | 0.00277 ± 0.0035 |
| UCCUGGUACAGCUUCCAUAGUAUUUACUUA | 0.000623 ± 0.013 |
| UCCUCCUACAGCUUGCAUUCAAUUUACAAA | 0.00137 ± 0.0059 |
| UCCUGCUACAGCUUGCAUACAUUUUACAAA | 0.00124 ± 0.0063 |
| UCCUGGAACAGCUUGCAAUCUAUUUACAAA | 0.00106 ± 0.0066 |
| UCCUGGAACAGCUUGCAUAGUAUUAUAGUUA | 0.0399 ± 0.015 |
| UCCUGGAUCAGCUUGUAUAGUAUUUAGUUA | 0.104 ± 0.021 |
| UCCUCCUACAGGUUGCAUAGUAUUUACAAA | 0.00321 ± 0.0024 |
| UCCUGGAACAGCUUGCAAUCUAUUUAGUAA | 0.00153 ± 0.0061 |
| UCCUGGAUGUCGUUGCAUAGUAUUUAGUUU [g2:g18:cont:t1U] | 0.00135 ± 0.005 |
| UCCUGGUACAGCUUGCAUAGUAUGUUAGUUA | 0.00488 ± 0.0028 |
| UCCUGGAACAGCUUGCAUCGUAUUUAGUUA | 0.0172 ± 0.0048 |
| UCCUCCAACAGCUUGCAUAGUUUUUAGUUA | 0.0119 ± 0.0041 |
| UCCUGGAUGUGCUUCGAUAGUAUUUAGUUA | 0.0013 ± 0.0058 |

Same assay, conditions: auxiliary factor: none (no Gtsf1)

| Sequence | pre-steady-state target cleavage rate |
| --- | --- |
| UCCUGGAUCAGCUUGCAUAGUAUUAUAGUUA | 0.00759 ± 0.0041 |
| UCCUGGAAGAGCUUGGAUAGUAUUUAGUUA | 0.00136 ± 0.0079 |
| UCCUGGAUCAGCUUGCAUAGUAUUUCAGUUA | 0.000234 ± 0.027 |
| UCCUGGAUGUGCUUGCAUUCUAUUUAGUAA | 0.00011 ± 0.062 |
| UCCUGGAUGUGCAUGCAUAGUAAUUAGUUA | 0.000802 ± 0.01 |
| UCCUGGAACAGCUUGCAUAGUAUUUACGUUA | 0.00152 ± 0.0093 |
| UCCUCCUACACGAUGCAUAGUAUUUACAAA | < 0.0001 |
| UCCUGGUACAGCUUCCAUAGUAUUUACUUA | 0.00035 ± 0.024 |
| UCCUCCUACAGCUUGCAUUCAAUUUACAAA | 0.000243 ± 0.026 |
| UCCUGCUACAGCUUGCAUACAUUUUACAAA | 0.000132 ± 0.043 |
| UCCUGGAACAGCUUGCAUAGUAUUAUAGUUA | 0.000613 ± 0.023 |
| UCCUGGAACAGCUUGCAAUCUAUUUAGUAA | 0.000424 ± 0.017 |
| UCCUGGAUGUCGUUGCAUAGUAUUUAGUUU [g2:g18:cont:t1U] | 0.000512 ± 0.02 |
| UCCUGGUACAGCUUGCAUAGUAUGUUAGUUA | 0.00115 ± 0.0079 |
| UCCUGGAACAGCUUGCAUCGUAUUUAGUUA | 0.00791 ± 0.0048 |
| UCCUGGAUGUGCUUCGAUAGUAUUUAGUUA | 0.00043 ± 0.017 |
